Measurements as given in PubChem BioAssay AID493014 (National Center for Advancing Translational Sciences (NCATS), 2011).
The list shows a part of the results. These are further read-outs of the screen, such as a control signal, another cell line or another target. No call is given for them. The list favours compounds with an active or inconclusive main result. The note in brackets gives the kind of curve behind each potency; many fits are weak.

Experiment: qHTS Assay to Find Inhibitors of Chronic Active B-Cell Receptor Signaling
Settings: ABC-DLBCL IkBa-CBG/CBR reporter, luminescence ratio (green luciferase fused to IkBa over red control in TMD8 lymphoma cells), 4 h
Summary of the method: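 Concentration-response series (up to 46 uM) were applied to TMD8 dual-reporter cells for 4 h at 37C with doxycycline. Green/red ratio, after filter-overlap correction, defined %Activity; red signal alone was normalised to basal cells and zero luminescence.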

[1] = measured here: CBR red luminescence, cell number
[2] = measured here: IkBa-CBG green luminescence

SMILES	AC50 [1]	AC50 [2]
CCC(=O)Nc1ccc(NC(=O)CSc2nc3c(c(=O)n(C)c(=O)n3C)n2CC)cc1	20 µM [rising, single point]	10 µM [falling, partial curve, poor fit]
COc1ccc(C2=NOC(C(=O)NCc3cccs3)C2)cc1 (stereo not drawn)	16.4 µM [falling, partial curve, poor fit]	
O=C(O)CC(NS(=O)(=O)Cc1ccccc1)c1cccc([N+](=O)[O-])c1 (stereo not drawn)	3.16 µM [rising, single point]	
CN(CC(=O)Nc1ccccc1Br)C(=O)CNC(=O)c1ccc(Oc2ccccc2)cc1	35.5 µM [falling, single point]	
COC(=O)CNC(=O)CN1C(=O)N(c2cccc(Cl)c2)C(N(O)C(=O)Nc2cccc(Cl)c2)C1(C)C (stereo not drawn)	35.5 µM [falling, single point]	
C=CCOc1nc2sc(C)c(C)c2c(=O)n1-c1ccccc1	11.2 µM [rising, partial curve, poor fit]	
C/C(=N\Nc1ncc(Cl)cc1Cl)c1ccc(N2CCOCC2)cc1	35.5 µM [falling, single point]	20 µM [falling, single point]
COc1ccc(/C=N/Nc2ccc([N+](=O)[O-])cc2)cc1Cn1cc([N+](=O)[O-])cn1	6.51 µM [rising, partial curve, poor fit]	
CCN(CC(=O)Nc1ccc(NC(C)=O)cc1)C(=O)CCCc1nc2ccccc2s1	20.6 µM [falling, single point]	
Cc1cc(Br)cnc1NC(=S)Nc1ccc(F)cc1F	20 µM [rising, partial curve, poor fit]	
O=S(=O)(CCc1nc2ccccc2o1)c1ccc(Cl)cc1	2.06 µM [rising, single point]	
Nc1ccccc1Oc1ccc2ccccc2c1	35.5 µM [rising, single point]	
Cc1ccc(SSc2cc(C)ccc2N)c(N)c1	29.1 µM [rising, single point]	20.6 µM [falling, single point]
COC(=O)N1C(=O)[C@](c2ccc(OC)cc2)(C(C)C)N1C(=O)OC	10 µM [falling, partial curve, poor fit]	
O=C(c1cc(=O)[nH]c2ccccc12)N1CC=C(c2ccccc2)CC1	8.2 µM [rising, partial curve, poor fit]	
COc1ccc(NC(=O)c2cc3c([nH]c4ccccc43)c(C)n2)cc1	2.91 µM [falling, partial curve, poor fit]	
COc1ccccc1-c1cc(C(=O)N2CCN(c3ccc(F)cc3)CC2)no1	3.98 µM [falling, full curve]	
Cc1cc2c(C)nc(N/N=C/c3ccccc3)nc2o1	13 µM [falling, partial curve]	
S=c1[nH]ncn1/N=C/c1cccc(Oc2ccccc2)c1	25.9 µM [rising, partial curve, poor fit]	23.1 µM [falling, single point]
CCCOc1ccc(C(=O)O)cc1	35.5 µM [falling, single point]	
Cc1cc(C)cc(NC(=O)NNC(=O)c2cc3occc3[nH]2)c1	35.5 µM [falling, single point]	
CC1CN/C(=C\C(=O)c2ccc(Cl)cc2)C(=O)N1 (stereo not drawn)	3.66 µM [falling, partial curve]	

SMILES	AC50 [1]	AC50 [2]
COc1cccc(-c2nnc(NC(=O)c3ccc4ncsc4c3)o2)c1	2.06 µM [falling, full curve]	
COc1ccccc1-c1nnc(SCc2ccccn2)n1C	1.46 µM [rising, partial curve]	
C=CCNc1nc(-c2ccc(Cl)cc2)cs1	31.6 µM [falling, single point]	
CCC1=C(OC(=O)N(CC)CC)N2C(=O)OC(=NCCOC)[C@]2(Cc2ccccc2)[C@H]2C1=CC[C@H]1C(=O)N(CC)C(=O)[C@H]12	35.5 µM [rising, single point]	
Cc1cccc(OCCCC(=O)Nc2ccc(N3CCOCC3)cc2)c1	0.164 µM [rising, full curve, poor fit]	
Cc1nn(C(=O)CCCn2cc([N+](=O)[O-])cn2)c(C)c1Cl	0.794 µM [rising, full curve, poor fit]	
COc1ccc(Cl)cc1NC(=O)C(=O)NC1CCCCCC1	0.058 µM [falling, full curve]	
Cn1nccc1C(=O)NC1CCCc2c1cnn2-c1ccccc1F (stereo not drawn)	12.6 µM [rising, single point]	
COC(=O)c1c(C)[nH]c(C(=O)OCC(=O)c2ccc(C)s2)c1C	16.4 µM [falling, partial curve, poor fit]	
Cc1c(C(=O)O)sc2[nH]c(=O)n(Cc3ccccc3)c(=O)c12	6.31 µM [falling, single point]	
COC(=O)c1cc(N=Nc2c(C)[nH]c3ccccc23)cc(C(=O)OC)c1	0.112 µM [rising, full curve, poor fit]	
COc1ccccc1-c1cc(C(=O)Nc2cc(C)on2)no1	2.51 µM [falling, full curve]	
COC(=O)c1c(NC(=O)CSc2nnc(-c3ccco3)n2Cc2ccccc2)sc(C)c1C	29.1 µM [falling, single point]	
C[C@]12C(=O)N(c3ccc(Cl)cc3)C(=O)N1[C@H]1c3ccccc3OC[C@@H]1[C@H]2c1ccccc1	6.31 µM [falling, full curve, poor fit]	
CCOC(=O)[C@H]1[C@H]2COc3ccc(C)cc3[C@@H]2N2C(=O)c3cc(F)c(F)cc3NC(=O)[C@@]12C	23.1 µM [falling, single point]	
O=C(OCc1ccccc1)/C(=C/c1cccc(Br)c1)NC(=O)c1ccco1	35.5 µM [falling, single point]	
Cc1cc(C(=S)N2CCOCC2)c(C)n1-c1ccc(F)cc1	22.4 µM [falling, single point]	
COc1cc2ccccc2cc1C(=O)N(CCN(C)C)c1nc2c(C)cccc2s1	20 µM [falling, single point]	
CCN(CC)CCNc1ncnc2c1sc1nc(N3CCCC3)c3c(c12)CC(C)(C)OC3	35.5 µM [falling, single point]	
Nc1nc2ccc(C(=O)NC3CCCCC3)cc2s1	14.1 µM [falling, single point]	
NC(=O)N/N=C/c1c(O)ccc2oc3c(c12)CCCC3		12.6 µM [rising, partial curve, poor fit]
CCC(=O)N1CCN(c2nc3ccccc3s2)CC1	18.4 µM [rising, single point]	

14 structures from above, arranged by SMILES length, rising:
SMILES	AC50 [1]	AC50 [2]
C=CCNc1nc(-c2ccc(Cl)cc2)cs1	31.6 µM [falling, single point]	
Nc1nc2ccc(C(=O)NC3CCCCC3)cc2s1	14.1 µM [falling, single point]	
COc1ccccc1-c1nnc(SCc2ccccn2)n1C	1.46 µM [rising, partial curve]	
COc1ccccc1-c1cc(C(=O)Nc2cc(C)on2)no1	2.51 µM [falling, full curve]	
Cc1cc(C(=S)N2CCOCC2)c(C)n1-c1ccc(F)cc1	22.4 µM [falling, single point]	
Cc1cccc(OCCCC(=O)Nc2ccc(N3CCOCC3)cc2)c1	0.164 µM [rising, full curve, poor fit]	
COc1cccc(-c2nnc(NC(=O)c3ccc4ncsc4c3)o2)c1	2.06 µM [falling, full curve]	
Cc1nn(C(=O)CCCn2cc([N+](=O)[O-])cn2)c(C)c1Cl	0.794 µM [rising, full curve, poor fit]	
COc1cc2ccccc2cc1C(=O)N(CCN(C)C)c1nc2c(C)cccc2s1	20 µM [falling, single point]	
COC(=O)c1cc(N=Nc2c(C)[nH]c3ccccc23)cc(C(=O)OC)c1	0.112 µM [rising, full curve, poor fit]	
CCN(CC)CCNc1ncnc2c1sc1nc(N3CCCC3)c3c(c12)CC(C)(C)OC3	35.5 µM [falling, single point]	
COC(=O)c1c(NC(=O)CSc2nnc(-c3ccco3)n2Cc2ccccc2)sc(C)c1C	29.1 µM [falling, single point]	
C[C@]12C(=O)N(c3ccc(Cl)cc3)C(=O)N1[C@H]1c3ccccc3OC[C@@H]1[C@H]2c1ccccc1	6.31 µM [falling, full curve, poor fit]	
CCC1=C(OC(=O)N(CC)CC)N2C(=O)OC(=NCCOC)[C@]2(Cc2ccccc2)[C@H]2C1=CC[C@H]1C(=O)N(CC)C(=O)[C@H]12	35.5 µM [rising, single point]	

(more compounds)

SMILES	AC50 [1]	AC50 [2]
O=C(Nc1ccc(F)cc1)/C(Cl)=C/c1ccccc1	5.62 µM [falling, partial curve]	
Cc1nc(-c2ccc(C(=O)Nc3ccccc3F)cc2)cs1	3.98 µM [falling, partial curve]	
CCCCN(C(=O)c1ccc(N2CCCC2=O)cc1)c1c(N)n(Cc2ccccc2)c(=O)[nH]c1=O	3.66 µM [rising, single point]	
COc1ccc(/C=C/c2cc(C(F)(F)F)[nH]c(=O)n2)cc1OC	12.6 µM [falling, partial curve]	
Cc1ccc(/C=C/C2=NN(C)C(=O)CC2)cc1	14.1 µM [falling, single point]	
O=C(O)/C=C\C(=O)Nc1cccc(C(=O)Nc2cccc(O)c2)c1	25.1 µM [falling, single point]	
O=C(NCc1ccccn1)c1cc(Cl)ccc1OCc1ccccc1	17.8 µM [falling, partial curve, poor fit]	
CCOc1ccc(-n2c(SCC(=O)Nc3ccc(CC)cc3)nc3n[nH]c(C)c3c2=N)cc1	3.16 µM [rising, partial curve, poor fit]	
COc1ccc(C(=O)NCc2ccc(-n3cccc3)cc2)cc1OC	15.8 µM [falling, single point]	
Cc1ccc(C)c(Cn2nc(-c3ccccc3)ccc2=O)c1	35.5 µM [falling, single point]	
Cc1c(N2C(=O)/C(=C\C3CC=CCC3)SC2=S)c(=O)n(-c2ccccc2)n1C (stereo not drawn)	12.6 µM [falling, partial curve]	
Cc1ccc(SCCC(=O)N/N=C/c2ccncc2)cc1	35.5 µM [falling, single point]	
Cc1c(C(=O)NNC(=O)c2csc(N3CCOCC3)n2)oc2ccccc12	13 µM [falling, partial curve, poor fit]	
COc1ccc(/C=N/N=C2/NC(=O)C(c3ccccc3)(c3ccccc3)S2)cc1	6.51 µM [rising, single point]	
N/C(=N\OC(=O)Cc1cccs1)c1ccc(Cl)cc1	0.447 µM [rising, full curve, poor fit]	
CC(C(=O)Nc1cc([N+](=O)[O-])ccc1Cl)N1CCN(c2ccccc2O)CC1 (stereo not drawn)	18.4 µM [falling, single point]	
O=[N+]([O-])c1ccc(COc2ccccc2/C=N/O)cc1	32.6 µM [falling, single point]	
COc1ccccc1NC(=S)NCc1ccccc1Cl	6.31 µM [rising, single point]	
CCC(C)Oc1nc2c(c(=O)n(C)c(=O)n2C)n1C (stereo not drawn)	0.501 µM [falling, full curve, poor fit]	
O=C(COc1cccc2ccccc12)N1CCN(c2ccccn2)CC1	4.11 µM [rising, full curve, poor fit]	
